These are yes or no findings as the source states them, for the method shown. In cells and extracts the contact can be indirect. Some entries that bind do so weakly or less than the wild type.
Legend:
[1] = biological target: T1, kinesin-14 KIFC1 (human (endogenous in primary umbilical vein ECs)) (UniProt Q9BW19); test: co-IP; endogenous KIFC1 immunoprecipitated (mouse antibody) from lysates of wild-type ECs; 25 mM Tris-HCl pH 7.2, 150 mM NaCl, 1% NP-40, 4°C; Western blot
T1 sequence: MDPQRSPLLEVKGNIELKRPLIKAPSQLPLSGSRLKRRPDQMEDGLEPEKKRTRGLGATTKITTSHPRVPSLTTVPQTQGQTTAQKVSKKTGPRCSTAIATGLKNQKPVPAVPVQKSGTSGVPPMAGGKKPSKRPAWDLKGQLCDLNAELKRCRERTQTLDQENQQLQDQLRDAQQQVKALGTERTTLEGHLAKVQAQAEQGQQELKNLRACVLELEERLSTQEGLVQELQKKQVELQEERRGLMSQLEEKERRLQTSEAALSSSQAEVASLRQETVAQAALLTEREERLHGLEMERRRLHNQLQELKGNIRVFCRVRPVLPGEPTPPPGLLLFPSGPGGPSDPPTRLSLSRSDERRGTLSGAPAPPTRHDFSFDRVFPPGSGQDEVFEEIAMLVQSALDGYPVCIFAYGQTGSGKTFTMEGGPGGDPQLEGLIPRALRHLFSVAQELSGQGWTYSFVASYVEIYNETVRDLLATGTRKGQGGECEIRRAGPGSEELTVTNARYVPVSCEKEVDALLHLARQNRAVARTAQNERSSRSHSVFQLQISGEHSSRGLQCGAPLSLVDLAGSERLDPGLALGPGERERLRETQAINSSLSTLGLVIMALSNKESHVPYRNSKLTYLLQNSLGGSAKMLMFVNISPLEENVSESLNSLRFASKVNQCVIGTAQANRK

By UniProt entry, the sequences of proteins in these tests, tags left out. Residues count along the entry.
UniProt Q13586, residues 23-685: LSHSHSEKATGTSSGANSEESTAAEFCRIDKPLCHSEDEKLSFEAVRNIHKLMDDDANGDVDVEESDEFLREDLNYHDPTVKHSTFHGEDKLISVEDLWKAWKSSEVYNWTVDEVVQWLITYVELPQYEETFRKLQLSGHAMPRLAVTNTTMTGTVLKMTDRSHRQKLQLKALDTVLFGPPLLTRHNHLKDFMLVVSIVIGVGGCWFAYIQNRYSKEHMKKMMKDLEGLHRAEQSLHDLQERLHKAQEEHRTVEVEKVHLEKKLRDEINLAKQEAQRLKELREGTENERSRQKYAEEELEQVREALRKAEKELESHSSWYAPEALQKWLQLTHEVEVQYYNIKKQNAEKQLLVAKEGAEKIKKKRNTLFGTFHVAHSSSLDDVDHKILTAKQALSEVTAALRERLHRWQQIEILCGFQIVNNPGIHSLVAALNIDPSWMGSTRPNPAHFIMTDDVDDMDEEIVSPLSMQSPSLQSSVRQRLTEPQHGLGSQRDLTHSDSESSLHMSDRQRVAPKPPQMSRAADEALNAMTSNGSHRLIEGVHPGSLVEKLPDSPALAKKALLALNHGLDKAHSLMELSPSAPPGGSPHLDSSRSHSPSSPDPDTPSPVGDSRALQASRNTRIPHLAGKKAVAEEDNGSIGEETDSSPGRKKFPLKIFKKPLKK
UniProt Q15691: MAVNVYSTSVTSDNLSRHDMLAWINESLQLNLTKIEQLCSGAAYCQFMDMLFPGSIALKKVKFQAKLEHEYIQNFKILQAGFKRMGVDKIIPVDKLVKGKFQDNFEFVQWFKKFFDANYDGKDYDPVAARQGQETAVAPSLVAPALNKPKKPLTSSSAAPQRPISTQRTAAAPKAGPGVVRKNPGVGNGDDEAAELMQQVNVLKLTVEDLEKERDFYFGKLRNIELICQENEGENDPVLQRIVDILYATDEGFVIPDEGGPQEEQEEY

[2] = biological target: stromal interaction molecule 1 (STIM1) (human (endogenous in primary umbilical vein ECs)) (UniProt Q13586); test: co-IP; endogenous STIM1 immunoprecipitated (rabbit antibody) from lysates of wild-type ECs; 25 mM Tris-HCl pH 7.2, 150 mM NaCl, 1% NP-40, 4°C; Western blot
[3] = biological target: MT plus end-binding protein 1 (EB1) (human (endogenous in primary umbilical vein ECs)) (UniProt Q15691); test: co-IP; endogenous EB1 immunoprecipitated (mouse anti-EB1) from lysates of shCTL or shSTIM1 ECs; 1 mg lysate, 25 mM Tris-HCl pH 7.2, 150 mM NaCl, 1% NP-40, 4°C; Western blot

Substance	binding [1]	binding [2]	binding [3]
p150Glued subunit of dynactin (from UniProt Q14203-1 1-1278)	binds	binds	binds
MT plus end-binding protein 1 (EB1) (from UniProt Q15691 1-268)	–	binds	–

Reference: PMC7737607
